Reference: PMC2718698, “The TCL1A Oncoprotein Interacts Directly with the NF-κB Inhibitor IκB” (PLoS ONE, 2009)
No constants are given. Whether binding was seen depends on the method and setting. For some of these results: In cells and extracts the contact can be indirect. Some results given as binding are weak or reduced against the parent protein; the word gives no strength.

By UniProt entry, the sequences of proteins in these tests, tags left out. Where a name states a change or a piece, a line headed by the entry shows the natural chain unless it says otherwise.
UniProt P56279: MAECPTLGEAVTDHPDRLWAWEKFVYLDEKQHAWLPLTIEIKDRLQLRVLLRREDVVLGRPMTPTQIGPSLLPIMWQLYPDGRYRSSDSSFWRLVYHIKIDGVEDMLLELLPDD
UniProt P25963: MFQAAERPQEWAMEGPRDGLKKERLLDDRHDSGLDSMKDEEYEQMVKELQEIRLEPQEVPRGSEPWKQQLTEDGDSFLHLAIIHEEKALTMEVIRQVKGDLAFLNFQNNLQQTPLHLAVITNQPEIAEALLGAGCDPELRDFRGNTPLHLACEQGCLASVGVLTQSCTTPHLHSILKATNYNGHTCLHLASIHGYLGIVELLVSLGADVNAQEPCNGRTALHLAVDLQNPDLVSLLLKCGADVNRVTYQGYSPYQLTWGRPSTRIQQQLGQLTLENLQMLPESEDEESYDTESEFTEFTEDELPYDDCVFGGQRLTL

Tests used:
FLAG-TCL1A (human) = FLAG-TCL1A (human) (UniProt P56279); experiment: co-IP; 293 cells transiently transfected with pCMV2-FLAG-TCL1A and pCMV-IκBα; extracts with mouse anti-Flag antibody 16 h, protein G-Sepharose; immunoblot
[1] = molecular target: TCL1A two-hybrid bait (pGBT10-TCL1A) (human) (UniProt P56279); experiment: two-hybrid; screen in yeast strain HF7c; bait pGBT10-TCL1A, peripheral blood mononuclear cell cDNA library in pGAD; HIS+ βGAL+ colonies
GST-TCL1A (human) = GST-TCL1A (human) (UniProt P56279); experiment: pull-down; GST proteins on glutathione-sepharose beads incubated with rabbit reticulocyte lysates containing [35S]-labeled translated IκBα or IκBα(1–253); 12% SDS-PAGE, autoradiography; only the target purified

binding (GST-TCL1A (human))	Substance	other results
–	IκBα over-expressed in 293 cells (pCMV-IκBα) (from UniProt P25963 1-317)	binding (FLAG-TCL1A (human)): binds
–	IκBα residues 73–317 (two-hybrid prey) (from UniProt P25963 73-317) (domain or fragment)	binding [1]: binds
binds	[35S]-labeled IκBα (from UniProt P25963 1-317)	–
binds	[35S]-labeled IκBα(1–253) (from UniProt P25963 1-253) (domain or fragment)	–
